Measured values as given in publication PMC8600398.
For at least one entry, the source does not settle the construct or the ends of the probe. Negatives hold for the conditions tested.

Protein sequences, listed by entry. Tags and fused reporters are not part of them. Lines headed by an entry give the natural chain unless they say otherwise; changes in a name come on top.
UniProt P0ACJ8: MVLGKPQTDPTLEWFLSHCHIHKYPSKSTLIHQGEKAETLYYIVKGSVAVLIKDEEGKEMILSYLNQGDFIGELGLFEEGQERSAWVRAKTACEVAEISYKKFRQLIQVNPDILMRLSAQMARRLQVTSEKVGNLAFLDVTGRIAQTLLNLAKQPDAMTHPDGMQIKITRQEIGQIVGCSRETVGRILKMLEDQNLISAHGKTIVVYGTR

Target: 6His-CRP (cAMP receptor protein) (UniProt P0ACJ8)
Assay: EMSA
Settings: 200 uM cAMP, 10 mM Tris-HCl pH 7.5, 50 mM NaCl, 5 mM MgSO4, 1 mM DTT, 1 mg/ml BSA, 10% glycerol, 12 ug/ml poly(dI-dC), 5 nM DNA, 37 C 15 min, recombinant protein, protein details: N-terminal 6His, label: Cy5 (5' or 3'), probe letters rebuilt from the primers and the genome

| Sequence | Kd | binding result |
| --- | --- | --- |
| AGTACTCGCACTTTTCCCACTAACTGCGCGCTGTTCCAGGTTTTGTAGCTAAACTGATCTTTATCAAGCACCAACTCGCCCCGATCGGTAATGCCAATCGGCGGCACTCGCTGACCGGTTTCGAACTGATGTGCGGAAGCCATCATCGGCAACAGCAGGCAGGTGAGTGCCAGAATCTTGCGTAGGGTCATGGTGTTTCCTTCTTATGATATGCAGGTGATCCGACCACTTGGGTCTGAGTTTTAATCATATGTGCTATTTATCGAATTTCCCGCAAGTGTGATGCCAGTTTGCGGTCAAGCGCACAAATCATATGAAAAATGAATGCTTATACTGAAGACCGCGCTTCGGTAAAAAGATAATTCTGAATAATTGTAACCTTTAGGTAAAAAAAGTTATACGCGGTGGAAACATTGCCCGGATAGTCTATAGTCACTAAGCATTAAAATTTGCGCCTCATAATAGTTGGGCCGATTGTGGCACCGCACAGGCGTAATACTCAGCAGGAGATAACAATG (double strand) [ytfK promoter region -515/+3] | 25 nM |  |
| AGTACTCGCACTTTTCCCACTAACTGCGCGCTGTTCCAGGTTTTGTAGCTAAACTGATCTTTATCAAGCACCAACTCGCCCCGATCGGTAATGCCAATCGGCGGCACTCGCTGACCGGTTTCGAACTGATGTGCGGAAGCCATCATCGGCAACAGCAGGCAGGTGAGTGCCAGAATCTTGCGTAGGGTCATGGTGTTTCCTTCTTATGATATGCAGGTGATCCGACCACTTGGGTCTGAGTTTTAATCATATGTGCTATTTATCGAATTTCCCGCAAGTGTGATGCCAGTTTGCGGTCAAGCGCACAAATCATATGAAAAATGAATGCTTATACTGAAGACCGCGCTTCGGTAAAAAGATAATTCTGAATAATTGTAACCTTTAGGTAAAAAAAGTTATACGCGGGATCCGGGG (double strand) [ytfK P2 promoter region (to -132)] |  | binds |
| CATTGTTATCTCCTGCTGAGTATTACGCCTGTGCGGTGCCACAATCGGCCCAACTATTATGAGGCGCAAATTTTAATGCTTAGTGACTATAGACTATCCGGGCAATGTTTCCACCGCGTATAACTTTTTTTACCTAAAGGTTACAATTATTCAGAATTATCTTTTTACCGAAGCGCGGTCTTCAGTATAAGCATTCATTTTTCATATGATTTGTGCGCTTGACCCTTGCGGGAAATTCGATAAATAGCACATATGATTAAAACTCAGACCCAAGTGGTCGGATCACCTGCATATCATAAGAAGGAAACACCATGACCCTACGCAAGATTCTGGCACTCACCTGCCTGCTGTTGCCGATGATGGCTTCCGCACATCAGTTCGAAACCGGTCAGCGAGTGCCGCCGATTGGCATTACCGATCGGGGCGAGTTGGTGCTTGATAAAGATCAGTTTAGCTACAAAACCTGGAACAGCGCGCAGTTAGTGGGAAAAGTGCGAGTACT (double strand) [ytfK promoter region with CRP site deleted] |  | no binding |
